Data reported in the supplement of paper PMC3334620.
Over roughly 33,000 sequences, “E-score (-0.5 to 0.5)” has its median near -0.015; the highest 2% begin near 0.3. The list shows a part of the results.

target: T1, Abf1 (UniProt P14164); assay: PBM E-score (8-mer binding enrichment) (E-score (-0.5 to 0.5)); higher = stronger / more preferred TF binding; details: protein concentration: 200 nM; construct: GST-full length
T1 sequence: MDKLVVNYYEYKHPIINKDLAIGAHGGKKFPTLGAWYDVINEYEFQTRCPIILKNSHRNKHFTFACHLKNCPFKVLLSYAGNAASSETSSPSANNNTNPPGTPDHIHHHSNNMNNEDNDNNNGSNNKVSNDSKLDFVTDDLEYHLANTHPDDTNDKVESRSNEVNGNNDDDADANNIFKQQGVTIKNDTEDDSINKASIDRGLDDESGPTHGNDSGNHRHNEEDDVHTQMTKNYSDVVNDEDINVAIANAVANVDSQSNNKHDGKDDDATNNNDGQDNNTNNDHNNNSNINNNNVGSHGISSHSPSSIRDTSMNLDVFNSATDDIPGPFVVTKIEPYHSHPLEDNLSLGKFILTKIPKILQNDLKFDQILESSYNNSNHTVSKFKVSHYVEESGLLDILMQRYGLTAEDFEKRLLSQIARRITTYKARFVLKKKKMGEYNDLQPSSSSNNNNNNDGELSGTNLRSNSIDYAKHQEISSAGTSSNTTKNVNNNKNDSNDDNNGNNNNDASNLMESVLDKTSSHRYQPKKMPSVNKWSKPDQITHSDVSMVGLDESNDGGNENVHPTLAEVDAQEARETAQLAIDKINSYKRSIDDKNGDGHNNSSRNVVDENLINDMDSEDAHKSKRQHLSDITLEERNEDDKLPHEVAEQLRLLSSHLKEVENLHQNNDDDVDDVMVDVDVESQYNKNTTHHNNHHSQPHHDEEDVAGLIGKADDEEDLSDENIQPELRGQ
Summary of the method: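 Yeast transcription factors, full-length or as DNA-binding domains, were expressed with a GST tag using PURExpress in vitro transcription/translation. At about 100-200 nM they were applied to universal all-10-mer Agilent arrays, double-stranded by primer extension on fresh or once-stripped slides. Fluorescent anti-GST detected bound protein, and masliner normalised the scans. E-scores for ungapped eight-base words, pooled with reverse complements, came from the Universal PBM Analysis Suite.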

Sequence	PBM E-score
CCAGTGTC	-0.09
GGACTGAA	-0.181
AAACCAGA	-0.161
ACGGGGAA	0.039
ACAGATGA	-0.0461
AACACCCT	-0.0765
ATTGGTAA	0.0216
GCGTGGCC	-0.202
AGCGATGC	-0.0615
CGGCCTTA	0.113
ACAAGTGC	-0.0568
CTCGAGCA	0.0548
AGAATCAT	-0.0649
CTTCATCC	-0.0431
ATCACTGA	0.205
CTACTGCA	-0.18
ATCGTCAG	0.154
CAGTCAGG	-0.242
CGCCTGTC	-0.135
GAAATATA	0.137
CAAGAGAG	0.0634
GTCGAGGA	0.12
ACCATGCC	-0.0871
AACCACAG	-0.111
TAGATACA	-0.0265

Sequence	PBM E-score
AAGGCGTC	-0.118
GCCGTACC	0.356
ACGAAATA	0.147
CAGGCCGG	-0.192
CCTGCCCA	-0.197
CCGTGGAG	-0.0764
CAGTCCGA	-0.0199
CTGTAAAG	-0.0691
CATGCGAA	0.0115
CCCTCATC	-0.182
ACGCCAAT	0.0806
CCTCGCAG	-0.189
AATAGACG	0.058
ATTGTGAG	-0.0226
CTTAGGTC	-0.153
AGCATACG	0.0119
ATCCCACG	0.0512
CGCTCAGA	-0.146
CCTTCGGA	-0.111
AGCGCATA	0.103
AACTGCCA	-0.0469
ACGTCATA	0.222
CCTATAGC	-0.24
CCGTCAGC	0.103
ACCATCAA	-0.162

Sequence	PBM E-score
CTAATATC	0.284
GCCAGATA	-0.143
CTCACTAA	0.129
CATGGGAC	-0.0164
GCACAGTA	0.0727
CGACTTTC	-0.0316
AACGGTCA	0.0956
GCAGGGCC	-0.2
CGCCGCTA	-0.174
AGTGCCCA	-0.0527
TAAAGCTA	-0.0625
GATGGCAA	0.00551
GGACGGAC	-0.0138
AGTCCTTG	0.136
AATACCGG	-0.152
ATCGTATC	0.242
GCAAGAAA	-0.0809
CCGAGACG	0.0483
CGCAAGAA	0.172
AACTGCCG	0.132
CCGGATTA	-0.0556
AGCGGACC	-0.0104
GGTGCTAC	-0.1
GCACATGC	-0.137
GATTAGAC	0.00825

A different layout for some results above:
Sequence,PBM E-score
GCAAGAAA,-0.0809
CCGAGACG,0.0483
CGCAAGAA,0.172
AACTGCCG,0.132
CCGGATTA,-0.0556

Next results follow.

Sequence	PBM E-score
GAGTAAGC	-0.0833
ATACTCAC	0.0974
ATGAGGGG	-0.228
CGTACATC	0.134
CAGCTTAG	-0.147
ATTTGCAC	0.0183
ACCCGCAT	0.125
ATTTTGTG	0.0301
GGCGTCAA	-0.206
CCACAGCG	0.00589
GCCCGCCA	-0.251
ACACATCG	-0.0438
CATAAACG	0.22
CTGTCGCA	-0.127
ATAACGGC	0.23
ACCAGAAT	0.0249
ATTGCTTA	0.0839
ACATGAAG	0.00147
CCTTGATC	-0.0146
CGCCCCAG	-0.19
GAGCATGC	-0.243
AGCGGCGG	-0.112
AGCATATA	-0.0274
TTATATAA	0.184
CACAATGG	-0.0344

Sequence	PBM E-score
CATCATTA	0.294
AGATACAA	0.129
CTCTACAA	-0.0494
GGGTCAGA	-0.137
AACCGCAC	-0.0655
CACCGAGA	0.0036
CCAACTGC	-0.222
ACAGCGGA	-0.058
AAGCGGGA	0.0301
CAGCACAA	0.0664
GTTGATTA	0.124
CTAATCAG	0.0367
ACGGGGCT	-0.00846
GAGGTAAC	0.109
TATCTACA	0.128
CCGCCATC	-0.26
ACAAGAAC	0.289
AGAACTTG	-0.00394
AATGGCTG	-0.181
GTAGCTTA	0.19
CATCCTCC	-0.127
CGCGGCCA	-0.171
CCGCATTC	0.00443
ACCACTCA	-0.0784
CCTCGCCC	-0.0351

Sequence	PBM E-score
ATTACTCG	0.0809
ATACTGTG	0.00537
ATCATTAC	0.262
CAACCCTA	-0.17
ATAGTCGC	0.0895
CGTGGCTC	-0.148
ATGTGAGA	0.0123
CCGGCCTA	-0.129
CTTCTATC	0.0251
AAGCCAGC	-0.221
TCTGTCCA	-0.22
AGTCCCAT	-0.0851
AAATCTCG	0.0579
TCAGGGGA	-0.0864
CAGGAGTA	-0.0725
AGAGTTTC	-0.069
GAACCCTA	0.00224
CGGATTTC	-0.0185
CCCCGCAA	-0.0817
CCACCTTC	-0.187
GGTTCGAA	0.114
CAGTGAGG	-0.166
CCTCTCAA	-0.0801
CACTTGCG	-0.0875
ACAAGCAG	-0.169

Sequence	PBM E-score
AGGCGTAG	-0.237
CGCTCGGC	-0.06
CCCGACCA	-0.153
CAGTGGAG	0.062
CGGCTTCA	0.0882
ATGTGCGC	-0.0469
GTCCGCAC	-0.118
AATAGAAA	0.02
CACAAAGC	-0.199
CAATTGCA	-0.204
GATGAGCA	0.153
ACGGACGT	0.105
TGCGGAAA	-0.16
CACTAGAG	0.0171
AGTCGCGG	-0.0974
TCTCGAAA	0.136
GGTGGAAC	-0.155
CGGGCTAG	-0.12
AACAGCGG	-0.129
ACGTTACA	0.179
AAGTTAAT	0.248
AGCTTTGC	-0.222
AAGTCCCG	-0.0454
AAATTGTC	0.18
ACGAGAAA	0.124

Sequence	PBM E-score
ACTGTTCC	-0.0449
GAGCCTCC	-0.0985
TAGATGCA	-0.0438
ACATATCC	0.236
GATTGAAC	0.0154
ACGATATC	0.321
CCCTTCCA	-0.325
AATTGTTA	0.0695
CAATAAAC	0.0652
AACCCCGC	-0.129
AATGCTCG	0.101
CAAAAACA	0.0687
ACCCAACT	-0.129
ATTGGTAC	-0.145
TACTCAAA	0.136
CCGTGTTC	0.146
CCAGCCTA	-0.199
ACCGATCA	0.196
ACTTTGCA	0.0351
AACGAATC	0.219
TACATGCA	0.0369
TAGAGCCA	-0.171
CATGAGTC	0.074
AATGAATC	-0.0608
CACTAATC	0.125

Sequence	PBM E-score
AGCTGCTA	-0.0858
GCTACGAC	-0.0162
CATTTTTA	0.111
CACTTCTG	-0.118
ACCGGCAG	-0.305
CAGCGCGC	-0.108
AACGACTC	0.0243
GCTACACA	-0.138
CTGGAAAC	0.0142
GGAAAACC	-0.251
GCCCGTCA	-0.00497
CTACATTC	-0.12
GACGTTCA	-0.00729
GCGGCCCA	-0.308
TGCTTTAA	0.11
ATTGGGAA	-0.0686
CTATTCCC	-0.128
CACGAATC	0.181
CGTATACA	0.114
ATTAGTAA	0.0129
GAGCCCTA	-0.194
ATCGTTCG	0.273
AATCCTGA	-0.201
CATGTTCA	-0.0791
CCCTTACA	-0.0196

Rewritten as labelled records: entries from further up.
CATGCGAA
  PBM E-score: 0.0115
CCCTCATC
  PBM E-score: -0.182

Continuation:

Sequence	PBM E-score
CCGAGTGC	-0.178
GTTCTTGA	0.0397
CATCCATC	-0.138
GCGTCGAC	0.0714
AGTGGGTG	0.0546
AACCCTGG	0.0177
ACTTAGCC	0.0333
AATGTGTG	0.102
CGCTGTTA	-0.0333
ACATATCT	0.171
CTTTTTGA	0.0353
CCTTGACA	-0.0249
CCACCACA	-0.24
AACAAAGG	-0.161
CCGACTTA	0.082
GTGTCGAA	-0.0353
AGCAGGAG	-0.0397
ATTGTGTA	0.147
AGAGTCAG	-0.102
AGATGATA	0.364
AACCTAAA	0.0712
CCCGTCAA	0.0248
CATTGCCG	0.0936
AGTAGACA	0.1
CACACTTC	-0.0074

Sequence	PBM E-score
GAAGCCAC	0.0321
GAAGCAGA	-0.16
AAACAGCT	-0.113
GATGAATA	0.0873
AGGTACGA	0.0832
CTTTCAAC	-0.0534
AACCTTGC	-0.0793
ACCCTTAC	-0.0492
CGATAAAA	0.285
CCTCAGGC	-0.0479
AAGACCGG	-0.0657
AGGGTTAG	-0.186
CGGACTCC	-0.218
GTCGTCCA	0.236
ACATATGA	0.105
GCGGAACA	-0.147
GGGCGACC	-0.206
CGGTGAAC	0.0918
CAGCTAGG	-0.341
CACGTCTG	0.146
ACGTCACA	0.0823
CGATATAG	0.241
CAACTGCA	-0.0215
AAATACAC	0.12
AGTGCAAA	0.166

Sequence	PBM E-score
ACCCGTCA	0.015
AGCGCCCC	-0.35
CACGCTCG	-0.0364
CTTTGTTA	0.0123
CTTGAGGA	-0.153
ATTATGAC	0.171
CGGGACCC	-0.364
AATGGGAC	-0.115
CACGATCG	0.339
CAAATCGG	-0.0701
CAACATAA	0.0698
GTGAGCAC	0.0115
CAGGTGCA	-0.258
AGGGAATA	-0.0196
TATATATA	0.111
ATGCATGG	0.0114
GTAAGTTA	0.0983
ATCTGGTA	-0.0336
CAAGCATC	-0.0759
ACGTACGC	0.114
AGACCTCC	-0.301
CTCGTCTC	0.134
ACAAGGAC	0.0507
CGTTATTA	0.191
CTCTTCAG	-0.118

Sequence	PBM E-score
ATGTTCAC	0.0691
AGGCGCTG	-0.199
CCGACATC	0.218
GAAGTGGC	-0.197
CCTACGGA	0.0868
GCCGTTTA	0.102
CGTTTGTA	0.2
GATGTCAA	-0.0282
ATTCCAGA	-0.0736
CATGGGGA	-0.0454
GAGAATCA	-0.00605
TATCCGCA	0.111
CGACCAAG	-0.133
TGGAAAAA	-0.0303
AGTACTAG	-0.0501
CTTTTGAC	-0.0184
AGAACAGA	-0.155
CATGCTCC	0.0168
AGTGCGGG	-0.0483
CTGCTTCA	-0.116
CCCCAAGG	-0.403
CAAAATTA	0.0559
GTTGCACA	-0.137
AAATCCAC	0.101
CCAACTGA	-0.0672

Sequence	PBM E-score
CGTCATAA	0.207
AAACATGT	0.0799
AACGTTTA	-0.0328
GCCACTCC	-0.0636
GTACGATA	0.259
AGAGCTTG	-0.169
ATGAGAGG	-0.216
ATTCACAG	-0.0305
ACGAAGAA	0.288
AGCCCGTA	0.161
AAACACCC	-0.0385
CCCGTCGC	0.0854
ACGGAATA	0.0684
ACGCCGGA	-0.053
GATCAGTA	0.176
AATTTTGA	0.205
CCAAGGAA	-0.185
ACTGCTAG	-0.165
AGACTTTG	0.0104

Reprinted at random: 4 records from the list, in no set order.
Sequence	PBM E-score
AAACACCC	-0.0385
ACTGCTAG	-0.165
ACGGAATA	0.0684
GATCAGTA	0.176
